Measured values reported in patent US20170285043A1.
These are yes or no findings as the source states them, for the method shown. For some assays here: Binding seen in cells or lysates may run through a third protein. Some entries that bind do so weakly or less than the wild type. For some assays here: Sequences can lack the tags named with a protein.

Sequences of proteins named here, by UniProt entry; tags and fusion partners are left off. A change or cut given only in a name is not applied to a line headed by its entry.
UniProt Q9NXC5: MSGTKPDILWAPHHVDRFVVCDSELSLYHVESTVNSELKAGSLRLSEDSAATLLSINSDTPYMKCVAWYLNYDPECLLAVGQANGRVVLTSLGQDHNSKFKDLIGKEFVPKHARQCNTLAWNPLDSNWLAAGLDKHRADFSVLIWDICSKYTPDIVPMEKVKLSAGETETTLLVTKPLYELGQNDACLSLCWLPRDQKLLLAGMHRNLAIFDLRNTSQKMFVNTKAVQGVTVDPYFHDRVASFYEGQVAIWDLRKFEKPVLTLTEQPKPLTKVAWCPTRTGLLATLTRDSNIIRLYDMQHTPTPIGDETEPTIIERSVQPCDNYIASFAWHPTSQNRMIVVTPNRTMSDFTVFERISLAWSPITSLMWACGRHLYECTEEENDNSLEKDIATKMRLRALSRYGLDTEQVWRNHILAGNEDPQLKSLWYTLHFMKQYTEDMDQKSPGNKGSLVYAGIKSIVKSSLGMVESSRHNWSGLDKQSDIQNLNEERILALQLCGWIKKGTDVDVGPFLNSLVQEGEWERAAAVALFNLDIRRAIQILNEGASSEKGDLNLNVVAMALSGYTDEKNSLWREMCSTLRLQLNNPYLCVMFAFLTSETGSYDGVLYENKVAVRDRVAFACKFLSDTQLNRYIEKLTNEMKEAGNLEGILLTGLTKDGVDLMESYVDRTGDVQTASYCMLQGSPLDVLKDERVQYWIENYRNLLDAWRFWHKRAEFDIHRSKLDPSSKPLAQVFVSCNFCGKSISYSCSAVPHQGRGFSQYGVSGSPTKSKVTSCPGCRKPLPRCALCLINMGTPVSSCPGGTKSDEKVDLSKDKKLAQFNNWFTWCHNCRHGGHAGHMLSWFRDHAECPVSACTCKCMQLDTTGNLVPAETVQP

Experiments:
[1] = target: GATOR2, recombinant, transiently co-expressed (HA-Mios, HA-WDR59, HA-WDR24, HA-Sec13, HA-Seh1L) (Homo sapiens (Human)) (UniProt Q9NXC5); test: anti-FLAG co-immunoprecipitation, transient co-expression in HEK-293T, immunoblot (FIG. 1B)
[2] = target: GATOR2 complex immunopurified through stably expressed FLAG-WDR24 (human) (UniProt Q9NXC5); test: anti-FLAG immunoprecipitation of FLAG-WDR24 from HEK-293T, immunoblot (figure not shown)

B1: FLAG-Sestrin3 (protein, not shown: small tags and cut ends)
chain: MNRGGGSPSAAANYLLCTNCRKVLRKDKRIRVSQPLTRGPSAFIPEKEVVQANTVDERTNFLVEEYSTSGRLDNITQVMSLHTQYLESFLRSQFYMLRMDGPLPLPYRHYIAIMAAARHQCSYLINMHVDEFLKTGGIAEWLNGLEYVPQRLKNLNEINKLLAHRPWLITKEHIQKLVKTGENNWSLPELVHAVVLLAHYHALASFVFGSGINPERDPEISNGFRLISVNNFCVCDLANDNNIENASLSGSNFGIVDSLSELEALMERMKRLQEEREDEEASQEEMSTRFEKEKKESLFVVSGDTFHSFPHSDFEDDMIITSDVSRYIEDPGFGYEDFARRGEEHLPTFRAQDYTWENHGFSLVNRLYSDIGHLLDEKFRMVYNLTYNTMATHEDVDTTMLRRALFNYVHCMFGIRYDDYDYGEVNQLLERSLKVYIKTVTCYPERTTKRMYDSYWRQFKHSEKVHVNLLLMEARMQAELLYALRAITRHLT
B1 was tested, and the binding [1] was “binds”.

B2: endogenous Sestrin3 (protein)
chain: B1 chain
For B2, the binding [2] was “binds”.
